{
  "source": "PubChem BioAssay AID2113",
  "about": "(National Center for Advancing Translational Sciences (NCATS), 2009)",
  "note": "Inconclusive results, whose numbers are uncertain, are shown with a selection of clear calls. Potencies beside an inconclusive call are fits to weak or partial responses and may not hold up. Activity calls are given as the source filed them. Calls follow the shape of the dose curve; as a rule, active = well fitted curve in either direction with a large enough effect; inconclusive = small, poorly fitted or top-dose-only effect; inactive = no such curve, though single readings can be large or run the other way. Potency is read from the fitted curve at half-maximal effect.",
  "data": [
    {"molecular_target": "Lysosomal alpha-glucosidase (Homo sapiens) (UniProt P10253)", "test": "Confirmation of Inhibitors and Activators of Human alpha-Glucosidase From Spleen Homogenate; as to activity change, both directions: 0% is about no effect", "conditions": "alpha-glucosidase enzyme activity; series mostly up to 60.5 µM; activity change, both directions: at the top concentration", "excerpt": "NIH Chemical Genomics Center [NCGC]\nNIH Molecular Libraries Probe Production centers Network [MLPCN]\nAssay Submitter (PI): Wei Zheng\nAlpha-glucosidase is responsible for hydrolysis of terminal, non-reducing 1,4-linked alpha-D-glucose residues with release of alpha-D-glucose. It is a lysosomal hydrolase that is required for the degradation of a small percentage (1-3%) of cellular glycogen in human. Deficiency of this enzyme results in glycogen-storage disease type II (GSDII), also referred to as Pompe disease, an autosomal recessive disorder. Structurally normal glycogen is accumulated in lysosomes and cytoplasm in affected patients, primarily in muscle tissues. Excessive glycogen storage within lysosomes may interrupt normal functioning of other organelles and leads to cellular injury. In turn, this leads to enlargement and dysfunction of the entire organ involved (eg, cardiomyopathy and muscle weakness).\nIt has reported that the improper folding and trafficking of alpha-glucosidase resultinged from the genetic mutations may account for a significant number of Pomrope patients. […] We optimized this alpha-glucosidase assay in 1536-well plate format for identifying the novel small molecule inhibitors with the structures other than the sugar analogs in order to develop the new pharmacological chaperones. In particular, this assay is directed towards discovering compounds active in a more natural setting, tissue homogenate, that may have been missed by screens of the purified enzyme under more stringent conditions. This assay attempted to confirm hits from the primary screening.\nNCGC Assay Protocol Summary:\nThis is a fluorogenic enzyme assay with 4-methylumbelliferyl-alpha-D-glucopyranoside as the substrate and human spleen homogenate containing alpha-glucosidase as the enzyme preparation. Upon hydrolysis of this fluorogenic substrate, the resulting product, 4-methylumbelliferone (which excites at 365 nm and emits at 440 nm) can be detected by a fluorescence plate reader. Data were normalized to the controls for basal activity (without enzyme) and 100% activity (with enzyme). The AC50 values were determined from concentration-response data modeled with the standard Hill equation.\nAssay buffer: 50 mM citric acid (titrated with potassium phosphate to pH 5.0), 0.01% Tween-20 (pH 5.0 is an optimal condition for this enzyme assay)\n1536-well assay protocol for the alpha-glucosidase from human spleen homogenate:\n(1) Add 2 ul/well spleen homogenate (1 ug)\n(2) Add 23 nL compounds in DMSO solution. The final titration was 0.5 nM to 58 uM.\n(3) Add 2 ul of substrate (1 mM final)\n(4) Incubate at 37 C for 40 min\n(5) Add 2 ul stop solution (1M NaOH and 1M Glycine mixture, pH 10)\n(6) Detect the assay plate in a ViewLux plate reader (PerkinElmer) with Ex=365 nm and Em=440nm.\nKeywords: Alpha-glucosidase, Pompe Disease, pharmacological chaperone, chaperone therapy, high throughput screening, alpha-glucosidase inhibitor, MLSMR, MLSCN, NIH Roadmap, qHTS and NCGC", "values": [
      {"smiles": "CCc1sc(-c2cc3cccc(OC)c3oc2=O)nc1-c1ccc(C)cc1C", "Potency": "inconclusive: 7.08 µM [activator, single point]"},
      {"smiles": "O=c1oc2ccccc2cc1-c1nc2c(s1)CCc1ccccc1-2", "activity change, both directions": "inactive: 5.25%"},
      {"smiles": "Cc1ccc(C(=O)NCCn2c(N)c(C#N)c3nc4ccccc4nc32)cc1", "Potency": "inconclusive: 14.1 µM [activator, partial curve]"},
      {"smiles": "O=C(Cc1ncc(C(F)(F)F)cc1Cl)NCCc1ccccc1", "activity change, both directions": "inactive: 0.772% [at 31.5 µM]"},
      {"smiles": "CC(=O)Nc1c(S(=O)(=O)c2ccccc2)c2nc3ccccc3nc2n1Cc1ccccc1", "Potency": "inconclusive: 25.1 µM [activator, partial curve]"},
      {"smiles": "O=c1oc2ccc(Cl)cc2cc1-c1nc2c(s1)CCCC2", "activity change, both directions": "inactive: 15.9%"},
      {"smiles": "COc1cc(-c2cc(N3C(=O)Nc4ccccc4N3O)n[nH]2)cc(OC)c1OC", "activity change, both directions": "inactive: -4.58% [at 31.5 µM]"},
      {"smiles": "CC(=O)c1ccc(N2CCN(S(=O)(=O)c3ccc4c(c3)C(=O)OC4)CC2)cc1", "activity change, both directions": "inactive: -1.65%"},
      {"smiles": "O=C(CCc1cccc(S(=O)(=O)N2CCOCC2)c1)NN=C1c2ccccc2-c2ccccc21", "activity change, both directions": "inactive: -5.44%"},
      {"smiles": "O=C1Cc2cc(S(=O)(=O)N3CCN(c4ccc(C(F)(F)F)cc4)CC3)ccc2N1", "Potency": "inconclusive: 595 µM [inhibitor, partial curve]"},
      {"smiles": "CCCn1c(=O)c2c(C(F)(F)F)cc(-c3cccs3)nc2n(CCC)c1=O", "Potency": "inconclusive: 12.6 µM [activator, partial curve]"},
      {"smiles": "O=C1Cc2cc(S(=O)(=O)N3CCN(c4ccc(Cl)cc4)CC3)ccc2N1", "Potency": "inconclusive: 237 µM [inhibitor, partial curve]"},
      {"smiles": "Cc1ccc2nc3c(cc(C(=O)NCC4CCCO4)n3C)c(=O)n2c1", "note": "(stereo not given)", "Potency": "inconclusive: 15.8 µM [activator, full curve]"},
      {"smiles": "Cc1nnc(SCC(=O)Nc2ccc3c(c2)COC3=O)n1-c1ccccc1", "activity change, both directions": "inactive: 1.17% [at 31.5 µM]"},
      {"smiles": "CCCN1CNc2c(c(=O)[nH]c(=S)n2CCc2cccc(OC)c2OC)C1", "Potency": "active: 15.8 µM"},
      {"smiles": "Cc1cc(N2CCOCC2)nc2ccc(NC(=O)C3CCCCC3)cc12", "Potency": "inconclusive: 28.2 µM [activator, partial curve, poor fit]"},
      {"smiles": "CCCN1CNc2c(c(=O)[nH]c(=S)n2CCc2cccs2)C1", "Potency": "active: 35.5 µM"},
      {"smiles": "C=CCNC(=O)/C(C#N)=C/c1c(N2CC(C)OC(C)C2)nc2ccccn2c1=O", "note": "(stereo not given)", "Potency": "inconclusive: 14.1 µM [activator, single point]"},
      {"smiles": "CC(=O)c1ccc(N2CCN(S(=O)(=O)c3ccc4[nH]c(=O)[nH]c4c3)CC2)cc1", "activity change, both directions": "inactive: 0.795%"},
      {"smiles": "CCCN1CNc2c(c(=O)[nH]c(=S)n2CCc2cc(C)cc(C)c2)C1", "Potency": "inconclusive: 5.62 µM [activator, full curve]"},
      {"smiles": "COc1cc2nc(N(C)C)nc(N)c2cc1OC", "Potency": "inconclusive: 12.6 µM [activator, partial curve]"},
      {"smiles": "COc1ccc(CCn2c(=S)[nH]c(=O)c3c(C)cc(C)nc32)cc1OC", "activity change, both directions": "inactive: -3.35%"},
      {"smiles": "CCc1sc(-c2cc3ccccc3oc2=O)nc1-c1ccc(C)cc1", "Potency": "inconclusive: 12.6 µM [activator, full curve]"},
      {"smiles": "Cc1ccccc1S(=O)(=O)N1CCOCC1", "activity change, both directions": "inactive: -0.0363%"},
      {"smiles": "O=C(O)Cc1sc(-c2cc3ccccc3oc2=O)nc1-c1ccc(Br)cc1", "activity change, both directions": "inactive: -0.847%"},
      {"smiles": "CCCN1CNc2c(c(=O)[nH]c(=S)n2CCc2ccc(Cl)c(Cl)c2)C1", "Potency": "inconclusive: 7.08 µM [activator, full curve]"},
      {"smiles": "COc1ccc(/C=C/c2ccc3ccccc3n2)cc1OC", "Potency": "inconclusive: 31.6 µM [activator, single point]"},
      {"smiles": "CCCN1CNc2c(c(=O)[nH]c(=S)n2CCc2ccccc2OC)C1", "Potency": "active: 44.7 µM"},
      {"smiles": "CCc1sc(-c2cc3ccccc3oc2=O)nc1-c1ccc(C)cc1C", "Potency": "inconclusive: 11.2 µM [activator, partial curve]"},
      {"smiles": "Nc1cccc(S(=O)(=O)N2CCOCC2)c1", "activity change, both directions": "inactive: 3.24%"},
      {"smiles": "Cc1ccc(C(=O)c2sc3c(c2N)c(=O)[nH]c(=O)n3CCc2ccccc2)cc1", "activity change, both directions": "inactive: -3.39% [at 31.5 µM]"},
      {"smiles": "COc1ccc(C#Cc2cnc(Cl)c3cncnc23)cc1OC", "activity change, both directions": "inactive: 2.33%"},
      {"smiles": "O=S(=O)(c1cccnc1)N1CCOCC1", "activity change, both directions": "inactive: -4.01%"},
      {"smiles": "O=C1Cc2cc(S(=O)(=O)N3CCN(c4ccc(CO)cc4)CC3)ccc2N1", "Potency": "active: 25.9 µM [inhibitor]"},
      {"smiles": "CCCN1CNc2c(c(=O)[nH]c(=S)n2CCCc2ccccc2)C1", "Potency": "inconclusive: 50.1 µM [activator, full curve, poor fit]"},
      {"smiles": "C(=C/c1nccc2c1[nH]c1ccccc12)/c1ccc2c(c1)OCO2", "Potency": "inconclusive: 5.62 µM [activator, full curve]"},
      {"smiles": "COc1cc(=O)[nH]c(=O)n1C(=O)Cc1ccccc1", "activity change, both directions": "inactive: 2.38% [at 31.5 µM]"},
      {"smiles": "CC(=O)c1ccc(N2CCN(S(=O)(=O)c3ccc4c(c3)C(Cl)(Cl)C(=O)N4)CC2)cc1", "Potency": "active: 32.6 µM [inhibitor]"},
      {"smiles": "CCCN1CNc2c(c(=O)[nH]c(=S)n2CCc2ccc(Cl)cc2)C1", "Potency": "inconclusive: 14.1 µM [activator, full curve]"},
      {"smiles": "COc1ccc(CCn2c3c(c(=O)[nH]c2=S)CN(c2ccccc2)CN3)cc1OC", "Potency": "active: 8.91 µM"}
    ]}
  ]
}
